From patent US20240174754A1 come the findings set out here.

Protein sequences, listed by entry. Tags and fused reporters are not part of them. Lines headed by an entry give the natural chain unless they say otherwise; changes in a name come on top.
UniProt Q96E93: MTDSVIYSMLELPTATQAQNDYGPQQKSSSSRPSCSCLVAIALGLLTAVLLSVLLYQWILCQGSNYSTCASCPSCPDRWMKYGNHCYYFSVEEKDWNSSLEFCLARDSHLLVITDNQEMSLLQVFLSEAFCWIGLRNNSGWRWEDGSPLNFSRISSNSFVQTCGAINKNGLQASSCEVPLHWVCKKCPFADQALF

No constants are given. Whether binding was seen depends on the method and setting. A result given as binding can be weak or reduced; the word gives no strength.

This test concerns the target full length human KLRG1 expressed on CHOK1 cells (CHOK1-hKLRG1) (human) (UniProt Q96E93). Description: FACS on CHOK1-hKLRG1 cells (FIG. 1 legend).

B1: PA015 (antibody, human IgG1, kappa, V domains shown)
VH: QVTLRESGPALVKPTQTLTLTCTVSGFSLSTFGMGVGWIRQPPGKALEWLAHIWWDDDKWYELALKSRLTISKDTSKNQVVLTITNMDPVDTATYYCARVIYYGSRSAYYSMDYWGQGTTVTVSS
VL: DVVMTQTPLSLSVTPGQPASISCKSSQSIVHSNAHTYLEWYLQKPGQSPQLLIYKVSNRFSGVPDRFSGSGSGTDFTLKISRVEAEDVGVYYCFQGSHVPVTFGQGTKLEIKR
Regarding B1, the binding entry was “binds”.
